Some of the results follow.
Molecular target: T1, OsSMF1 (Oryza sativa, UniProt Q6ZLB0 1-436)
T1 sequence: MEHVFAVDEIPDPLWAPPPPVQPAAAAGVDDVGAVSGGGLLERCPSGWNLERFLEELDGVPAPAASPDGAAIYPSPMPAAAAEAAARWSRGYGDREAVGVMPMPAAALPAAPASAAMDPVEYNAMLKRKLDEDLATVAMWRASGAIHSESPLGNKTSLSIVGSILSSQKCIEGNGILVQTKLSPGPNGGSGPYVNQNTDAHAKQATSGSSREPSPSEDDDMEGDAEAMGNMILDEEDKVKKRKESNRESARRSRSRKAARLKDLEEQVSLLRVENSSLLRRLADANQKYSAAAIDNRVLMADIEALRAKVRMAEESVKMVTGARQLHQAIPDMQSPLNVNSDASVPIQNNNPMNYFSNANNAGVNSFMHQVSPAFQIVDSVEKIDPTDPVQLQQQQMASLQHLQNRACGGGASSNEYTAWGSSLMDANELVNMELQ
Assay: protein-binding microarray (RPBM); PBS, 2% BSA, 51.3 ng/ul salmon testes DNA, 50 uM zinc acetate, 200 nM TF, 25 C, 1 h; high values mean tight binding
Settings: protein: recombinant; tags: N-terminal polyhistidine and DsRed monomer fusion (pET32a); chain copies: 2; label: CyDye5-dUTP incorporated in the synthesized complementary strand; 3' TTTTT single-stranded linker to array surface; dsDNA, one strand shown
How it was run: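 Transcription factors were each fused at the N-terminus to a polyhistidine tag plus DsRed and expressed in E. coli BL21-CodonPlus before Ni–NTA purification. Binding to a double-stranded custom Agilent array was carried out with 200 nM protein at 25 °C for 1 h in PBS, 2% BSA, salmon testes DNA and 50 µM zinc acetate. The binding signal is per-feature fluorescence intensity, in arbitrary units, on an Axon 4000B scanner.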

Q: With “AGACTTAATCCCTTGTGCAACACGTGTCCCGTCACAATCTCGGAGTCACCTAGTGCAG” as the sequence, how does the binding signal read?
A: Its binding signal is 7560 fluorescence intensity (a.u.).

Q: With “TTGCATTACTTTCTTAGGGTTTTCTCTTGATTGCACCTGCCGGAGTCACCTAGTGCAG” as the sequence, how does the binding signal read?
A: The binding signal was 24000 fluorescence intensity (a.u.).

Q: For “CGCATCCGCCGTCCGTCCAAACGCATCCGACGGTCCACGTCGGAGTCACCTAGTGCAG”, which binding signal is on record?
A: The binding signal was 4950 fluorescence intensity (a.u.).

Q: With “TCGCAGTAATATGCCACCGTGGCGAATTCCCCAAAACAACCGGAGTCACCTAGTGCAG” as the sequence, how does the binding signal read?
A: Its binding signal is 10200 fluorescence intensity (a.u.).

Q: With “AATGACCTTCCCTATAAGCTACTCCATACGTCACATTAAGCGGAGTCACCTAGTGCAG” as the sequence, how does the binding signal read?
A: Its binding signal is 3160 fluorescence intensity (a.u.).

Q: With “GAGGTATCACCGTCCAGCTAAGCTGTTCAACTGCTGTATGCGGAGTCACCTAGTGCAG” as the sequence, how does the binding signal read?
A: The binding signal was 4160 fluorescence intensity (a.u.).

Q: How did the binding signal turn out when “ATAACATATATTGTAAACCCTACACATATCATCGCCAGGCCGGAGTCACCTAGTGCAG” was run?
A: The binding signal was 3640 fluorescence intensity (a.u.).

Q: How did the binding signal turn out when “ACTACTACTACGTGTATTAACCCCGTCACGATGAAAATGACGGAGTCACCTAGTGCAG” was run?
A: Its binding signal is 18700 fluorescence intensity (a.u.).

Q: With “TAAGTTACGTGTATGATGACGACAGAAAACGTAAACCATTCGGAGTCACCTAGTGCAG” as the sequence, how does the binding signal read?
A: Its binding signal is 3330 fluorescence intensity (a.u.).

Q: Which binding signal does the source give for “ACTCCCACGTGGGCCCAATATGTCAGCCCGCTAGTTCAGGCGGAGTCACCTAGTGCAG” here?
A: Its binding signal is 6760 fluorescence intensity (a.u.).

Q: Which binding signal does the source give for “GGCCGCGGCGGCGTCAACCGCCGCTCTCCCTTTGCCACCACGGAGTCACCTAGTGCAG” here?
A: Its binding signal is 3630 fluorescence intensity (a.u.).

Q: With “GCGAAAGTCGGTTGAATTGTGGCATCATTCTCAAATTCTGCGGAGTCACCTAGTGCAG” as the sequence, how does the binding signal read?
A: Its binding signal is 3170 fluorescence intensity (a.u.).

Q: Which binding signal does the source give for “CTCTTGTCCTCAAGGTGAGTAGACAAGTACACATTTGTGTCGGAGTCACCTAGTGCAG” here?
A: Its binding signal is 3680 fluorescence intensity (a.u.).

Q: With “GCATCATCGTGGTGTCGTCTCTTCCACGTCAACCGTATTACGGAGTCACCTAGTGCAG” as the sequence, how does the binding signal read?
A: Its binding signal is 14200 fluorescence intensity (a.u.).

Q: How did the binding signal turn out when “ATTGTCGAGGAAGTTACCACGTAAATTTGTTCTTGCTTTTCGGAGTCACCTAGTGCAG” was run?
A: The binding signal was 3320 fluorescence intensity (a.u.).

Q: With “GATGCCCTGACGTCCGTGCACACGTGGCTGGTCTTAGTCTCGGAGTCACCTAGTGCAG” as the sequence, how does the binding signal read?
A: Its binding signal is 19400 fluorescence intensity (a.u.).

Q: With “TTTTAGTTATTACGCACCCCACGTACGGTATAGTATGTGTCGGAGTCACCTAGTGCAG” as the sequence, how does the binding signal read?
A: Its binding signal is 4040 fluorescence intensity (a.u.).

Q: “TGCTCTAATGGATTGATGACGCTTGAACTGTGACGGTGTACGGAGTCACCTAGTGCAG” was tested. Which binding signal did it give?
A: Its binding signal is 5500 fluorescence intensity (a.u.).

Q: How did the binding signal turn out when “AGGCAGTTACCAGTACTCTTTCTTGATTCAAAGGAGCACACGGAGTCACCTAGTGCAG” was run?
A: The binding signal was 3790 fluorescence intensity (a.u.).

Q: With “GCTTTGCATAGGCACTTTCAAAACTAGATATTAGTAACGCCGGAGTCACCTAGTGCAG” as the sequence, how does the binding signal read?
A: Its binding signal is 51000 fluorescence intensity (a.u.).

Q: For “ACGATTTCTTCTCCACGCAGCAAGAGCCGATCGATCATTGCGGAGTCACCTAGTGCAG”, which binding signal is on record?
A: The binding signal was 3150 fluorescence intensity (a.u.).

Q: For “CTCCCATTTGCGCAGCATTCCTTCGTGGCTTGGTGGTGTACGGAGTCACCTAGTGCAG”, which binding signal is on record?
A: The binding signal was 3170 fluorescence intensity (a.u.).

Q: For “GGTCGCCGTCACCCCTCGTCAGCGACGCGCACGTCGCCACCGGAGTCACCTAGTGCAG”, which binding signal is on record?
A: The binding signal was 4430 fluorescence intensity (a.u.).

Reference: publication PMC7819943, “Rice protein-binding microarrays: a tool to detect cis-acting elements near promoter regions in rice”
